In PubChem BioAssay AID1307 (SRMLSC, 2008):
Screen size: about 1,200 compounds; fewer than 10 were called active.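 Rule for the calls: active = inhibition reaching a set limit at one or more tested concentrations; inactive = inhibition under that limit at every dose.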 Some of the results follow. Results with a measured potency or affinity are listed apart.

Assay: yeast RAM network inhibitors, dose response, S. cerevisiae (AID 1307);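 note: 0% = DMSO vehicle wells and 100% = 10 µM 1-NA-PP1 control; higher inhibition means more yeast growth since RAM block rescues cells from 5-FOA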
Conditions: S. cerevisiae RAM network URA3 reporter, 5-FOA growth OD615, stronger effect = higher value, yeast express analog-sensitive mutant Cbk1 kinase; at 100 µM unless noted

Max inhibition, inactive:
Cc1cc(C)c(S(=O)(=O)NCc2ccc3c(c2)cc(C)n3C)c(C)c1 4.59%, COC(=O)c1ccccc1NC(=O)c1ccc(COc2ccc3c(c2)CCC3)cc1 5.88%, Cc1cccc(Oc2cc(NC(=O)c3ccccc3)cc([N+](=O)[O-])c2)c1 4.61% [at 50 µM], CCN(CC)S(=O)(=O)c1ccc(N2CCN(c3cccc(OC)c3)CC2)c([N+](=O)[O-])c1 4%, O=[N+]([O-])/C=C/c1c(OCc2ccccc2)ccc2ccccc12 2.91% [at 25 µM], C=CCN1C(=O)C(Cc2ccc(C)cc2)S/C1=N/N=C/c1ccco1 (stereo not given) 6.91%, N#Cc1nc(Cc2ccccc2)oc1N1CCC(Cc2ccccc2)CC1 6.21%, O/N=C/c1cc(Br)ccc1OCc1cccc(F)c1 1.58% [at 0.196 µM], COc1ccc(CC(=O)n2nc(-c3ccc(Cl)cc3)nc2NCc2ccco2)cc1 3.71% [at 25 µM], COC(=O)c1cc2c(ccn2-c2ccc(F)cc2)n1Cc1ccc(OC)cc1 5.52% [at 50 µM], COc1c(Br)cc2c(C)c(C(=O)N3CCOCC3)oc2c1Br 8.78%, COc1ccc(C(=O)O/N=C/c2c(C(F)(F)F)nn(C)c2SCc2ccccc2Cl)cc1 3.33% [at 0.196 µM], COc1ccc(/C(C)=N/Nc2cc(C(F)(F)F)ccc2Cl)c(OC)c1 1.33% [at 50 µM], Cc1noc(NS(=O)(=O)c2ccc(N/C=C\C(=O)c3cccs3)cc2)c1C 7.73%, CCCCC(C(=O)OCC(=O)c1ccc(OC)cc1)N1C(=O)c2ccccc2C1=O (stereo not given) 3.16%, CCCN1C(=O)/C(=c2\sc3nc(=O)c(Cc4ccc(C)cc4)nn3c2=O)c2ccccc21 5.5%, Cc1ccc(C(=O)c2ccccc2C(=O)OCC(=O)Nc2ccc(SC(F)F)cc2)cc1 5.79%, Cc1nn(Cc2ccccc2)c(Cl)c1C(=O)OCc1nnc(-c2ccccc2)o1 2.05% [at 0.782 µM], CCCCOc1ccc(CNn2c(C)nc3ccccc3c2=O)cc1 2.44% [at 25 µM], CCOC(=O)C(C)Sc1nc(-c2cccs2)ccc1C#N (stereo not given) 2.55% [at 0.196 µM], CC(=O)c1c(Nc2ccccc2)sc(C(=O)c2ccccc2)c1C 5.79%, CCOc1cc(/C=N/Nc2nc(Nc3ccccc3)nc(N3CCCCC3)n2)ccc1OCC(=O)O 9.92%, Cc1ccc(S(=O)(=O)c2c(N)n(C)c3nc4ccccc4nc23)cc1 6.47% [at 50 µM], C=CCOC(=O)C1=C(C)NC(SCC(=O)OCC)=C(C#N)C1c1ccc(C)cc1 (stereo not given) 2.76% [at 50 µM], CCCCCCCCNC(=O)/C(C#N)=C/c1ccc(SC)cc1 5.43%, CCCCC1S/C(=N/N=C/c2ccc(OC)cc2)N(Cc2ccc(OC)cc2)C1=O (stereo not given) 3.97% [at 50 µM], COC(=O)C/C=C/[C@@H](C)[C@@H](/C=N/OC[C@H]1O[C@H](c2ccccc2)C=C[C@@H]1Oc1ccc(OC)cc1)NS(=O)(=O)c1ccc(C)cc1 3.78%, COCCN(C(=O)C(C)C)c1nnc(-c2ccc(C(C)(C)C)cc2)s1 3% [at 50 µM], Cc1ccc(-n2c(SCC(=O)N3CCCc4ccccc43)nnc2-c2cccnc2)c(C)c1 3.12% [at 50 µM], CCCCn1nnc(NC(=S)NC(=O)c2ccc(-c3cccc(Cl)c3Cl)o2)n1 5.34% [at 50 µM], O=C(/C=C/c1cccc(C(F)(F)F)c1)Nc1cccc(C(F)(F)F)c1 2.77% [at 12.5 µM], CCOC(=O)c1c(-c2ccc(C)o2)csc1NC(=O)CSc1nncs1 1.46% [setting not given], Cc1cccc(NC(=O)C2CCCN2C(=O)Oc2ccccc2)c1C (stereo not given) 3.77% [at 1.563 µM], CSc1ccc(Cl)c(C(=O)OCC(=O)Nc2ccccc2OC(F)F)c1 3.28% [at 50 µM], CCOC(=O)c1oc2ccc(Br)cc2c1CSc1nnc(C)s1 3.38% [at 12.5 µM]
